Source: US8821850B2 (Mersana Therapeutics, Inc., priority 2011, dated 2014)

Experiment: peptide synthesis

AF HPA-Boc-L-Alanine
step yield (late stage modification step): 75% yield

LTVSPNY-Adoa-PEG12-Thioester
conjugation yield (conjugation step): 51% yield
